Assay results: PMC6572760
These are yes or no findings as the source states them, for the method shown. In cells and extracts the contact can be indirect. A yes stands for co-enrichment or nearness to the bait. Other partners may have been found. Tags and fused reporters may be left off the sequences shown.

Experiments:
Test in all cases: proximity labelling; M-track protein-protein proximity assay in living yeast: bait fused to HKMTmyc tri-methylates the H3 moiety of Hog1-protA-H3 on close proximity; cells treated with 1 M sorbitol for 40 min (unstressed cells also tested); me3K9H3 over HA signal by Western blot of urea extracts, compared with a strain expressing only Hog1-protA-H3
[1] = target: T1, Pan1-HKMTmyc (S. cerevisiae) (UniProt P32521)
T1 sequence: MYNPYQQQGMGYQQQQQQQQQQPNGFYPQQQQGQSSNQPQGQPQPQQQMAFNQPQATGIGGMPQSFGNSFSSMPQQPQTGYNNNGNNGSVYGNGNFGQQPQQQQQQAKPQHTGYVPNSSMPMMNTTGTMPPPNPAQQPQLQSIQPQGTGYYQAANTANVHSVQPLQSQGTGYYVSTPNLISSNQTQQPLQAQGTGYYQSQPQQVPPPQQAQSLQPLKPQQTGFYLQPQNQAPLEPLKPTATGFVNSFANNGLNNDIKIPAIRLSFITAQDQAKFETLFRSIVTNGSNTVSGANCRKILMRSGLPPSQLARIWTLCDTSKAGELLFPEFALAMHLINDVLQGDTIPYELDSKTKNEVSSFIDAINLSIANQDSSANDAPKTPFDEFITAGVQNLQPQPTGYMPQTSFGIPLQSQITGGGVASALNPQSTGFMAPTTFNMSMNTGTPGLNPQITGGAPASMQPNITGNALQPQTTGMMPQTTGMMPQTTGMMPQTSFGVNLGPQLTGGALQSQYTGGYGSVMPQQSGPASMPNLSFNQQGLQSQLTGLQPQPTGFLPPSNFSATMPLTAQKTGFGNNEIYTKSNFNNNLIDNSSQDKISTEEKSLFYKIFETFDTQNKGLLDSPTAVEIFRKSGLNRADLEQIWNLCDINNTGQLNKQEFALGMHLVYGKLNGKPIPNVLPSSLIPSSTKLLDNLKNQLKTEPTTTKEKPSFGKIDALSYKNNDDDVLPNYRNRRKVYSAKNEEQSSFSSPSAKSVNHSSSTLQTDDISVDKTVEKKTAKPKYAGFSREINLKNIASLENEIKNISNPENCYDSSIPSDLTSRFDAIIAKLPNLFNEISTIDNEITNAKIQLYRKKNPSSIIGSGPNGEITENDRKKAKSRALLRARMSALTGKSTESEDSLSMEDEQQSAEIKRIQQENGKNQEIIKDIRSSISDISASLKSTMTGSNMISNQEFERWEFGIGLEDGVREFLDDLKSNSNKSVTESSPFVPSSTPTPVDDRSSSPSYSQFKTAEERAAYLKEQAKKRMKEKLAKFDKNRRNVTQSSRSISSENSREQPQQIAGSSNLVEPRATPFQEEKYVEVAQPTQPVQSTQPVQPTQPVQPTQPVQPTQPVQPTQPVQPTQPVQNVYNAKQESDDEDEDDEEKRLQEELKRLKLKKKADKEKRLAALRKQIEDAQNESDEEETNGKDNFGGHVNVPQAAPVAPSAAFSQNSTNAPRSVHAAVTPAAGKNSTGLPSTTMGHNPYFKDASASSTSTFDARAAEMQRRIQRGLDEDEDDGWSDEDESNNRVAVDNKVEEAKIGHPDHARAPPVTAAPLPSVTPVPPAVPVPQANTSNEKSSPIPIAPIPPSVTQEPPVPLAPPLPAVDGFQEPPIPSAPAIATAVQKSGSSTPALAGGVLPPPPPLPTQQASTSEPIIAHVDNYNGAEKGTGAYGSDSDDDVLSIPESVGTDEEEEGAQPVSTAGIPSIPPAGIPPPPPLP

[2] = target: T2, Sog2-HKMTmyc (S. cerevisiae) (UniProt Q08817)
T2 sequence: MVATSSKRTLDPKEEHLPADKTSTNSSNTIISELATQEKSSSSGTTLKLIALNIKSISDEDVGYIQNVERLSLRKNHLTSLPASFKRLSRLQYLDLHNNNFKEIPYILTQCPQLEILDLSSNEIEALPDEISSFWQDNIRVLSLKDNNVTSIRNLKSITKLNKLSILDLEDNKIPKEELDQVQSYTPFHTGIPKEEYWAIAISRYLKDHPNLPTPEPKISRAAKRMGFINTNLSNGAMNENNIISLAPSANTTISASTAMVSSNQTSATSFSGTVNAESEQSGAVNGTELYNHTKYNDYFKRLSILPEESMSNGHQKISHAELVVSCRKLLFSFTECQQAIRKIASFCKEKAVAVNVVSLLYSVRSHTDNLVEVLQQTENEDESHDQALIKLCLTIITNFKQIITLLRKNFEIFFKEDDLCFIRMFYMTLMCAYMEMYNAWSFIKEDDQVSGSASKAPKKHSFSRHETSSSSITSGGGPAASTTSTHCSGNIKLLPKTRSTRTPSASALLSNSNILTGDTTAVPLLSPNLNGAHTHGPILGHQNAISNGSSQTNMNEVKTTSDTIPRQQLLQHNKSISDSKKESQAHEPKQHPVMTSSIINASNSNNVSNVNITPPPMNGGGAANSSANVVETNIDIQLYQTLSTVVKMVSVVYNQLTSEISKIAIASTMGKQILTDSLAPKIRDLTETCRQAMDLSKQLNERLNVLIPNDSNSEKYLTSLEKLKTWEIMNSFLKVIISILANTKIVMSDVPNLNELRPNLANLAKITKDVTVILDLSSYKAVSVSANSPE

[3] = target: T3, Gcs1-HKMTmyc (S. cerevisiae) (UniProt P35197)
T3 sequence: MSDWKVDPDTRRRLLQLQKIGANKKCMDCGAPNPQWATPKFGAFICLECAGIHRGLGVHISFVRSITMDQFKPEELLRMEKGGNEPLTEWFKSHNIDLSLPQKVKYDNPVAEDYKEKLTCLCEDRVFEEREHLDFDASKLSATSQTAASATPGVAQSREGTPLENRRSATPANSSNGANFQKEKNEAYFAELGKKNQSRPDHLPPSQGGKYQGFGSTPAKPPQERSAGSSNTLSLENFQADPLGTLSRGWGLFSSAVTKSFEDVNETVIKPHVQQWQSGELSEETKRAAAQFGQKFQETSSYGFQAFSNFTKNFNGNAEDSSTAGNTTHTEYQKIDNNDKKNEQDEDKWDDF

binding [1]: binds | binding [2]: binds | binding [3]: binds
B1: Hog1-TEV-ProteinA-Histone3-HA (enzyme, UniProt P32485 1-435)
chain: MTTNEEFIRTQIFGTVFEITNRYNDLNPVGMGAFGLVCSATDTLTSQPVAIKKIMKPFSTAVLAKRTYRELKLLKHLRHENLICLQDIFLSPLEDIYFVTELQGTDLHRLLQTRPLEKQFVQYFLYQILRGLKYVHSAGVIHRDLKPSNILINENCDLKICDFGLARIQDPQMTGYVSTRYYRAPEIMLTWQKYDVEVDIWSAGCIFAEMIEGKPLFPGKDHVHQFSIITDLLGSPPKDVINTICSENTLKFVTSLPHRDPIPFSERFKTVEPDAVDLLEKMLVFDPKKRITAADALAHPYSAPYHDPTDEPVADAKFDWHFNDADLPVDTWRVMMYSEILDFHKIGGSDGQIDISATFDDQVAAATAAAAQAQAQAQAQVQLNMAAHSHNGAGTTGNDHSDIAGGNKVSDHVAANDTITDYGNQAIQYANEFQQ
